A short description of the test: qHTS Assay to Find Inhibitors of Chronic Active B-Cell Receptor Signaling. Particulars: ABC-DLBCL IkBa-CBG/CBR reporter, luminescence ratio (green luciferase fused to IkBa over red control in TMD8 lymphoma cells), 4 h. In short, it runs like this:
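Compounds up to 46 uM were incubated four hours with TMD8 cells whose green CBG68 luciferase is fused to IkappaBalpha; red CBR luminescence normalised the signal, and concentration-effect curves were fitted to fusion, red and ratio data.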
Background: qHTS replaces the single test concentration by a dilution series.

[1] abbreviates: measured here: CBR red luminescence, cell number.
The mark [2] stands for this setting: measured here: IkBa-CBG green luminescence.

This is one part of the list. These are further read-outs of the screen, such as a control signal, another cell line or another target. No call is given for them. Most of these compounds were active or inconclusive in the main read-out, so they are no random draw. Words in brackets tell the shape of the fitted curve; partial curves, single points and poor fits give uncertain potencies.

As to `Cc1ccc(Oc2cc(C)nc(-c3ccccc3O)n2)cc1`, the AC50 under setting [1] was 12.6 µM [rising, single point].

In the case of `CC(=O)N1c2c(cc(Br)cc2S(=O)(=O)N2CCN(c3ccccn3)CC2)CC1C` (configuration not stated), the AC50 under setting [1] was 0.0651 µM [rising, full curve, poor fit].

For `CCC(C)c1ccc(NC(=O)Nc2cccnc2)cc1` (configuration not stated), the half-maximal activity concentration (AC50) under setting [1] was 11.2 µM [rising, partial curve]. Consider `Cc1cccc(-c2c3c(=O)n(C)c(=O)n(C)c3cn2C(C)C)c1`, for which the AC50 under setting [1] was 1.03 µM [rising, full curve, poor fit]. In the case of `CC(Oc1ccc(Cl)cc1Cl)C(=O)OCn1nnc2ccccc2c1=O` (configuration not stated), the AC50 under setting [1] was 29.1 µM [rising, single point]. The same measure, in the same setting: for `O=C(O)CCCCCN1C(=O)/C(=C\c2cn(-c3ccccc3)nc2-c2cccs2)SC1=S` the value was 0.794 µM [falling, full curve]; for `CCOC(=O)C1=C(c2ccccc2)N=c2s/c(=C\c3ccco3)c(=O)n2C1c1cccs1` (configuration not stated), 8.91 µM [falling, partial curve, poor fit].

For `COc1cccc(N(C(=O)CCl)C(C(=O)NCCc2ccccc2)c2cccs2)c1` (configuration not stated), the concentration at half-maximal activity (AC50) under setting [1] is 9.2 µM [falling, partial curve]. For the compound `Cc1ccc(SCCC(=O)Nc2nccs2)cc1`, the AC50 was 14.1 µM [falling, single point] under setting [1] and 14.1 µM [rising, partial curve, poor fit] under setting [2].

Turning to `CN1C[C@@H]2C(c3ccc(Cl)nc3)C3(c4ccccc4)CC2(C3)[C@H]1c1ccccc1` (some centres not stated), under setting [1], the AC50 was 22.4 µM [falling, single point].

In the case of `Cc1nn(C)cc1CN1CCCC(C(=O)c2ccc(-c3ccccc3)cc2)C1` (configuration not stated), the half-maximal activity concentration (AC50) under setting [1] was 6.31 µM [rising, single point]. For the compound `Cc1cc2c(cc1S(=O)(=O)N(C)c1ccccc1)n(C)c(=O)n2C`, under setting [1], the concentration at half-maximal activity (AC50) was 17.8 µM [rising, single point]. Still for that read-out and setting: next, `O=C(N/N=C/c1ccc([N+](=O)[O-])o1)c1cc(-c2cccc(Br)c2)nc2ccccc12`: 0.126 µM [falling, partial curve, poor fit]. With `Cc1csc(SC(C)C(=O)NC2CCCCC2C)n1` (configuration not stated), the AC50 under setting [1] is 0.517 µM [rising, full curve, poor fit].

On to `Cc1c(C(=O)Nc2c(F)cccc2F)sc2ncnc(N3CCN(c4ccccc4)CC3)c12`, for which the AC50 under setting [1] was 35.5 µM [falling, single point]. On the same count and under the same terms, for `CS(=O)(=O)c1ccccc1-c1csc(N2CCC(C(N)=O)CC2)n1` the value was 0.58 µM [rising, full curve, poor fit]; for `O=c1c(C(c2ccc(O)cc2)c2c(O)nc3n(c2=O)CCCS3)c(O)nc2n1CCCS2`, 17.8 µM [falling, single point]. As for `CN(C)S(=O)(=O)c1cccc(NC(=S)N/N=C/c2ccco2)c1`, the concentration at half-maximal activity (AC50) under setting [1] is 35.5 µM [falling, single point]. On the same count and under the same terms, for `Cc1ccc(Nc2cc(C(=O)NC3CCCC3)c3ccccc3n2)cc1C` the value was 35.5 µM [rising, single point]. Same read-out and setting: next, `Cc1noc(NS(=O)(=O)c2ccc(NC(=O)NC(C)(C(F)(F)F)C(F)(F)F)cc2)c1C`: 4.47 µM [rising, single point]; `C=CC[C@H](CC(=O)NCCO)C(=O)NCCOC(=O)[C@@H](CC=C)Cc1ccc(F)cc1`: 16.4 µM [rising, single point]. Still for that read-out and setting: next, `Cc1cc(C(F)(F)F)nn1Cc1n[nH]c(=S)n1-c1ccc(Cl)cc1`: 25.9 µM [rising, single point]; `Cc1noc(C)c1COc1ccc(C(=O)NNC(=O)c2ccccc2F)cc1`: 0.0058 µM [rising, full curve, poor fit].

For the compound `CCN1c2ccccc2NC2N=C(OC)C(c3ccccc3)C21` (configuration not stated), the concentration at half-maximal activity (AC50) under setting [1] was 29.1 µM [falling, single point].

Consider `COc1cc(Nc2nc(-c3ccccc3)c3cc(C)ccc3n2)cc(OC)c1OC`, for which, under setting [1], the half-maximal activity concentration (AC50) is 0.112 µM [falling, full curve, poor fit]. `Cc1cc(/C=C2\SC(=O)N(C)C2=O)c(C)n1-c1ccc(O)cc1`: the AC50 under setting [1] is 35.5 µM [falling, single point]. As for `CC1(C)O[C@@H]2C[C@H]3[C@@H]4CCC5=CC(=O)C=C[C@]5(C)[C@@]4(F)[C@@H](O)C[C@]3(C)[C@]2(C(=O)CO)O1`, the AC50 under setting [1] was 0.1 µM [rising, full curve, poor fit]. As for `CC1CC/C(=N/Nc2ccccc2)C(=O)N1` (configuration not stated), the concentration at half-maximal activity (AC50) under setting [1] was 16.4 µM [falling, partial curve].

Regarding `COc1ccc(C2=NOC(C(=O)NCc3ccc(F)cc3)C2)cc1OC` (configuration not stated), the AC50 by setting is: under setting [1], 20.6 µM [rising, single point]; under setting [2], 16.4 µM [falling, single point]. Regarding `Cc1ccc(OCC(=O)N(Cc2cccc(F)c2)C2CCS(=O)(=O)C2)cc1` (configuration not stated), the half-maximal activity concentration (AC50) under setting [1] was 8.91 µM [falling, partial curve, poor fit].

Take `CC(C)CCn1cnc2c(oc3nc4c(cc32)CCCC4)c1=O`: under setting [1], the AC50 was 10 µM [rising, partial curve, poor fit]. On the same count and under the same terms, for `O=C(Cn1nnc(-c2ccccc2Cl)n1)Nc1cccc(S(=O)(=O)N2CCCC2)c1` the value was 9.2 µM [falling, partial curve, poor fit]. `O=C(O)COc1ccc2oc3ccccc3c2c1`: the half-maximal activity concentration (AC50) under setting [2] was 1.41 µM [rising, partial curve, poor fit]. Take `COc1ccccc1C(=O)NNC(=S)Nc1ccccc1`: the half-maximal activity concentration (AC50) under setting [1] is 7.94 µM [falling, partial curve]. Turning to `COc1ccc(OC)c(-n2c(-c3ccc(O)cc3O)n[nH]c2=S)c1`, the AC50 under setting [1] was 35.5 µM [falling, single point]. As to `Fc1ccc(/C=N/Nc2ccccn2)cc1`, under setting [1], the AC50 is 0.231 µM [rising, full curve, poor fit]. With `Cc1ccc(C)c(-n2sc3ccc(F)cc3c2=O)c1`, under setting [2], the concentration at half-maximal activity (AC50) was 20.6 µM [falling, partial curve, poor fit]. Take `N=c1n(Cc2ccccc2)c2ccccc2n1CC(O)c1ccccc1` (configuration not stated): under setting [1], the AC50 is 12.6 µM [falling, partial curve, poor fit]. On the same count and under the same terms, next, `Cn1c(SCCOc2ccccc2Cl)nnc1-c1ccncc1`: 29.1 µM [rising, partial curve, poor fit]. The same measure, in the same setting: next, `S=c1nc[nH]c2c1ncn2C1CCCC1`: 12.6 µM [rising, single point]; `O=C(O)CCCc1ccccc1`: 16.4 µM [rising, single point]; `CCCCn1c(N)c(N(CC)C(=O)c2ccc(N(C)S(=O)(=O)c3ccc(C)cc3)cc2)c(=O)[nH]c1=O`: 14.6 µM [rising, partial curve, poor fit]. Same read-out and setting: next, `CC(=O)c1cc(C#N)c(SCC(=O)Nc2nccs2)nc1C`: 5.01 µM [falling, partial curve, poor fit]. Turning to `Clc1cccc(-c2cc3nc4c(c(NCc5ccco5)n3n2)CCCC4)c1`, the concentration at half-maximal activity (AC50) under setting [1] was 12.6 µM [falling, partial curve, poor fit]. With `Cc1ccc(-c2c(C(=O)N/N=C/c3sccc3C)nnn2-c2nonc2N)cc1`, under setting [1], the AC50 was 35.5 µM [falling, single point]. The same measure, in the same setting: next, `O=C(CSc1ccc(-c2ccncc2)nn1)N1CCCC1`: 0.794 µM [falling, full curve, poor fit]. As to `CCOC(=O)c1nc(-c2ccccc2)sc1C(C)=O`, under setting [1], the concentration at half-maximal activity (AC50) is 2 µM [rising, full curve, poor fit].

With `COc1ccc(Nc2nc(-c3cc4cccc(OC)c4oc3=O)cs2)cc1`, the AC50 under setting [1] is 5.8 µM [falling, partial curve, poor fit]. Same read-out and setting: for `Cc1c(NC(=O)CCCOc2ccccc2)cccc1[N+](=O)[O-]` the value was 6.31 µM [falling, partial curve, poor fit]. For `O=C(Nc1cccc(C(F)(F)F)c1)NC1CCCCC1`, under setting [1], the concentration at half-maximal activity (AC50) was 3.66 µM [falling, single point]. As to `O=C(Cc1cccs1)N1CCN(S(=O)(=O)c2ccc(F)c(F)c2)CC1`, the concentration at half-maximal activity (AC50) under setting [1] is 29.1 µM [rising, single point]. As for `O=C(c1ccoc1)N1CCC2(CC1)Oc1ccc(Cl)cc1C(=O)C21CC(c2ccccc2)=NO1` (configuration not stated), the concentration at half-maximal activity (AC50) under setting [1] was 11.2 µM [falling, partial curve, poor fit]. On the same count and under the same terms, next, `C=CCn1cnc2scc(-c3ccc(C)c(C)c3)c2c1=O`: 2.24 µM [falling, partial curve, poor fit]; `Cc1ccc(-n2c(SC3CCOC3=O)nc3ccccc3c2=O)cc1` (configuration not stated): 28.2 µM [rising, single point]. Same read-out and setting: next, `COc1cccc2cc(-c3nnc(Nc4ccccc4C)s3)c(=O)oc12`: 0.708 µM [falling, full curve, poor fit]; `Cc1ccc2nc(/C(C#N)=C/c3ccc(-c4ccccc4C(=O)O)o3)[nH]c2c1`: 17.8 µM [falling, partial curve].

For `O=C(O)CCCN1C(=O)/C(=C/c2ccncc2)SC1=S`, the concentration at half-maximal activity (AC50) by setting is: under setting [1], 0.224 µM [falling, full curve, poor fit]; under setting [2], 17.8 µM [rising, single point]. Turning to `CCOC(=O)c1ccc(NNC(=O)CC)c([N+](=O)[O-])c1`, under setting [1], the concentration at half-maximal activity (AC50) is 14.1 µM [rising, single point].

For the compound `Cn1nc(-c2ccccc2)c(CSc2cccc(Cl)c2)c1Cl`, the half-maximal activity concentration (AC50) under setting [1] is 23.1 µM [rising, single point]. Regarding `Cc1ccc(/C=c2\sc3nc(-c4ccco4)nn3c2=O)o1`, the concentration at half-maximal activity (AC50) under setting [1] is 5.8 µM [rising, partial curve]. On to `S=C(NCc1ccccc1)NNc1ccccc1`, for which the AC50 by setting is: under setting [1], 22.4 µM [falling, single point]; under setting [2], 15.8 µM [falling, single point]. Consider `Cn1c(=O)[nH]c2sc3c(c2c1=O)CC(C)(C)OC3`, for which the AC50 under setting [1] is 0.164 µM [falling, full curve, poor fit]. For `O=C(c1ccccc1)c1cnc2ccc(Cl)cc2c1N1CCOCC1`, the AC50 under setting [1] was 20 µM [rising, single point].

As a reminder, the AC50 is the concentration giving half of the maximal activity seen.

Source of the values: PubChem BioAssay AID493014 (National Center for Advancing Translational Sciences (NCATS), 2011).
